These are yes or no findings as the source states them, for the method shown. In cells and extracts the contact can be indirect. Some entries that bind do so weakly or less than the wild type.
Experiments:
[1] = target: adiponectin C-terminally tagged with FLAG (overexpressed in F11 cells, immunoprecipitated with FLAG antibody) (human) (UniProt Q15848); assay: pull-down of purified MycHis-tagged CLSP proteins with ADN-FLAG immunoprecipitated on M2 agarose beads, WB anti-myc [ADN beads]
[2] = target: apolipoprotein E4 C-terminally tagged with FLAG (overexpressed in F11 cells, immunoprecipitated with FLAG antibody) (human) (UniProt P02649); assay: pull-down of purified MycHis-tagged CLSP proteins with ApoE4-FLAG immunoprecipitated on M2 agarose beads, WB anti-myc [ApoE4 beads]
[3] = target: apolipoprotein E4 C-terminally tagged with FLAG (overexpressed in F11 cells, immunoprecipitated with FLAG antibody) (human) (UniProt P02649); assay: pull-down with immunoprecipitated ApoE4, myc immunoblot (FIG. 9)
[4] = target: human CLSP-MycHis (calmodulin-like skin protein, C-terminally tagged with MycHis) (human) (UniProt Q9NZT1); assay: pull-down of recombinant protein (1 nM) with CLSP-MycHis sepharose 4B, silver stain
[5] = target: human CLSP-MycHis (calmodulin-like skin protein, C-terminally tagged with MycHis) (human) (UniProt Q9NZT1); assay: pull-down of F11 cell lysate with CLSP-MycHis sepharose 4B, HA immunoblot
[6] = target: human CLSP-MycHis (calmodulin-like skin protein, C-terminally tagged with MycHis) (human) (UniProt Q9NZT1); assay: pull-down of F11 cell lysate with CLSP-MycHis sepharose 4B, HA immunoblot (FIG. 1)
[7] = target: adiponectin C-terminally tagged with FLAG (overexpressed in F11 cells, immunoprecipitated with FLAG antibody) (human) (UniProt Q15848); assay: pull-down with immunoprecipitated ADN-FLAG, myc immunoblot (FIG. 15 a, b)

Sequences of proteins named here, by UniProt entry; tags and fusion partners are left off. A change or cut given only in a name is not applied to a line headed by its entry. A line that says so, or that is headed by a name, gives the form on record, which may keep a tag or linker. Residues count along the entry.
UniProt Q15848: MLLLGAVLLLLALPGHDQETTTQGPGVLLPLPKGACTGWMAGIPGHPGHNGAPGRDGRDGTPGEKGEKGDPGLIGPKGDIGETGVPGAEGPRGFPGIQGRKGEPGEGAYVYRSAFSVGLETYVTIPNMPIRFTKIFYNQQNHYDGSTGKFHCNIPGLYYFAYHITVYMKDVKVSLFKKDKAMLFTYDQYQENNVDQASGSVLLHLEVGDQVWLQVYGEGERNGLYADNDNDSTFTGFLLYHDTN
recombinant human ApoE3 (PeproTech, cat. no. 350-02) (P02649, residues 19-317): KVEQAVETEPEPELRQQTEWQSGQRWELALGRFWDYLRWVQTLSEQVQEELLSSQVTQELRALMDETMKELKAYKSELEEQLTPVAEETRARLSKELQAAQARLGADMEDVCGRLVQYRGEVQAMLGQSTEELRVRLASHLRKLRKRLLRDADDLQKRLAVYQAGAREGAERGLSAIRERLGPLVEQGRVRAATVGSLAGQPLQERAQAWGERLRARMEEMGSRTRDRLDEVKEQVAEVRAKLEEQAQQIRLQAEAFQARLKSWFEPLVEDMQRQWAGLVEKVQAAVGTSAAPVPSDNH
recombinant human ApoE4 (PeproTech, cat. no. 350-04) (P02649, form named): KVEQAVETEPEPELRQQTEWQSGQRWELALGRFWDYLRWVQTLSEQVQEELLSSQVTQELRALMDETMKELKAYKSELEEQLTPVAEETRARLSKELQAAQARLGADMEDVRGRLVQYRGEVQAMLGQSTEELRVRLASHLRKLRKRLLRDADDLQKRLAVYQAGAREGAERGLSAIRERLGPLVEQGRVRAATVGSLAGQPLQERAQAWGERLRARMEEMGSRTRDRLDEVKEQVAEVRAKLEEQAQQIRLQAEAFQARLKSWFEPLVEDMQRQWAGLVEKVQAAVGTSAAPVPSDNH
UniProt P07355: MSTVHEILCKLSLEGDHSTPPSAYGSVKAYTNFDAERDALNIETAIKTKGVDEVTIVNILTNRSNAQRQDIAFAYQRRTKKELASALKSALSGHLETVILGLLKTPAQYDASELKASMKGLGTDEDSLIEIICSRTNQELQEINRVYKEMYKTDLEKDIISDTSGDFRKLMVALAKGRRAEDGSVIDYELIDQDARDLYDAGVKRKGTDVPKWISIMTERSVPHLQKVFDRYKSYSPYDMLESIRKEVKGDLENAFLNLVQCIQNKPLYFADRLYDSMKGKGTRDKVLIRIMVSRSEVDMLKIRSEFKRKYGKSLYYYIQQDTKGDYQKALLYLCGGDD

**Q.** Which binding [1] does the source give for “human CLSP-MycHis (calmodulin-like skin protein, C-terminally tagged with MycHis) (from UniProt Q9NZT1 1-146) (ligand)” here?
**A.** The binding was “binds”.

**Q.** And the binding [2]?
**A.** Its binding is “binds”.

**Q.** And the binding [3]?
**A.** Its binding is “binds”.

**Q.** For “human adiponectin (BioVendor, cat. no. RD172029100) (from UniProt Q15848 19-244) (ligand)”, which binding [4] is on record?
**A.** Its binding is “binds”.

**Q.** How did the binding [5] turn out when “human adiponectin, C-terminally tagged with HA (overexpressed in F11 cells, cell lysate) (from UniProt Q15848 19-244) (ligand)” was run?
**A.** Its binding is “binds”.

**Q.** And the binding [6]?
**A.** Its binding is “binds”.

**Q.** With “human apolipoprotein E3, C-terminally tagged with HA (overexpressed in F11 cells, cell lysate) (from UniProt P02649 19-317)” as the molecule, how does the binding [5] read?
**A.** The binding was “binds”.

**Q.** What about the binding [6] of the same molecule?
**A.** The binding was “binds”.

**Q.** For “recombinant annexin II (made from GST-annexin II produced in bacteria) (from UniProt P07355 1-339)”, which binding [4] is on record?
**A.** Its binding is “binds”.

**Q.** Which binding [4] does the source give for “recombinant human ApoE3 (PeproTech, cat. no. 350-02) (from UniProt P02649 19-317)” here?
**A.** The binding was “binds”.

**Q.** How did the binding [4] turn out when “recombinant human ApoE4 (PeproTech, cat. no. 350-04) (from UniProt P02649 19-317)” was run?
**A.** Its binding is “binds”.

B1: CLSP(1-61)-MycHis (N-terminal region of CLSP, amino acid 1-61, C-terminally tagged with MycHis) (ligand)
chain: MAGELTPEEEAQYKKAFSAVDTDGNGTINAQELGAALKATGKNLSEAQLRKLISEVDSDGD
notes: Made in bacteria; not shown: C-terminal MycHis tag
**Q.** How did the binding [7] turn out when B1 was run?
**A.** The binding was “binds”.

Source: patent publication US20220275038A1 (TOKYO MEDICAL UNIVERSITY, published 2022)
